Source: patent publication US20060094111, “DNA containing variant FRT sequences” (published 2006)
Tags and fusion partners may be left off the protein sequences shown.

Molecular target: T1, FLP recombinase (Saccharomyces cerevisiae) (UniProt P03870)
T1 sequence (looked up, limits assumed): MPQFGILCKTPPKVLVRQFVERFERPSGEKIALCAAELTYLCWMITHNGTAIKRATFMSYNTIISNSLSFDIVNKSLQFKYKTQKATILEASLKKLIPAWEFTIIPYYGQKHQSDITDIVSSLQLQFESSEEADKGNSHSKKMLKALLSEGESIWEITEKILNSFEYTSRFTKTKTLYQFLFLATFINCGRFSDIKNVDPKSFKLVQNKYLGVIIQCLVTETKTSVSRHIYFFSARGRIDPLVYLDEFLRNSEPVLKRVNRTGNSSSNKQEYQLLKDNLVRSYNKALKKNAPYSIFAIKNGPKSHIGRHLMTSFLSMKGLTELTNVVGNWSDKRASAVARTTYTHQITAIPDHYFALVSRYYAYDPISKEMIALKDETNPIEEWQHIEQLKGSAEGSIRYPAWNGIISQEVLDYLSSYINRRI
Assay: activity assay
Conditions: mutant x wild-type FRT, below detection; binding not measured; protein in a lysate after overexpression; variant of wild-type FRT

Activity on this sequence, < 0.2%:
TCGAGGACGTCGAAGTTCCTATACTCTCTGGAGAATAGGAACTTCTCCGGAA / CTAGTTCCGGAGAAGTTCCTATTCTCCAGAGAGTATAGGAACTTCGACGTCC [f2161 mutant FRT]
TCGAGGACGTCGAAGTTCCTATACTATTTGAAGAATAGGAACTTCTCCGGAA / CTAGTTCCGGAGAAGTTCCTATTCTTCAAATAGTATAGGAACTTCGACGTCC [F3 mutant FRT]
TCGAGGACGTCGAAGTTCCTATACTTTCTACAGAATAGGAACTTCTCCGGAA / CTAGTTCCGGAGAAGTTCCTATTCTGTAGAAAGTATAGGAACTTCGACGTCC [f72 mutant FRT]
TCGAGGACGTCGAAGTTCCTATACTATCTTGAGAATAGGAACTTCTCCGGAA / CTAGTTCCGGAGAAGTTCCTATTCTCAAGATAGTATAGGAACTTCGACGTCC [f2262 mutant FRT]
